The source of these data is patent publication US20060051395A1 (AFFINERGY, published 2006).

First the molecules themselves.
B1: IFBM AFF7008 (0016-2006) (peptide)
peptide: DVNSIWMSRVIEWTYDSGSSGKSRSSDSAFSSFSALEGSVVSR
modifications: C-terminal amide (-NH2)
B2: IFBM AFF7017 (0016-2011) (peptide)
peptide: DVNSIWMSRVIEWTYDSGSSGKSSDWGVVASAWDAFEALDASR
modifications: C-terminal amide (-NH2)
B3: IFBM AFF7010 (0016-2012) (peptide)
peptide: DVNSIWMSRVIEWTYDSGSSGKSSSVDLYFPLKGDVVSR
modifications: C-terminal amide (-NH2)
B4: IFBM AFF7009 (2012-0016) (peptide)
peptide: SSSVDLYFPLKGDVVSRGSSGKDVNSIWMSRVIEWTYDS
modifications: C-terminal amide (-NH2)
B5: IFBM AFF7006 (0016-2009) (peptide)
peptide: DVNSIWMSRVIEWTYDSGSSGKSSFEPLRFPLKGVPVSR
modifications: C-terminal amide (-NH2)
B6: IFBM AFF7005 (2009-0016) (peptide)
peptide: SSFEPLRFPLKGVPVSRGSSGKDVNSIWMSRVIEWTYDS
modifications: C-terminal amide (-NH2)

Results are given in words; binding and its absence hold for the method and conditions named. A result given as binding can be weak or reduced; the word gives no strength.

For one experiment, the target named is collagen sponge (Medtronic). Nature of the experiment: collagen sponge retention assay; IFBM premixed with BMP, sponge washed, retained BMP detected with anti-BMP antibody (FIG. 5).
On to B1, for which the binding entry is given as “binds”.
For the molecule B2, the binding result is recorded as “binds”.
Same read-out and setting: under B3 stands “binds”.

A further experiment addresses collagen sponge (Medtronic). Briefly: collagen sponge retention assay, two-dimensional dose response of IFBM and BMP (FIG. 6A-6D).
For B4, the binding entry is listed as “binds”.
The same measure, in the same setting: then B5, with “binds”; and B6, with “binds”.
Same read-out and setting: then B3, with “binds”.
